Test results: PubChem BioAssay AID540276 (National Center for Advancing Translational Sciences (NCATS), 2011)
Several values for one entry are separate records, joined by “and”; a condition that tells them apart may be missing. Equal values may be shown once. Among all 300,000 compounds or so, about 5,400 (1.8%) were called active. The shares of active, inactive and inconclusive entries below differ from those in the screen. Calls follow the shape of the full dose curve; tested in HEK293 cells. Where the call is inconclusive, the potency comes from a doubtful curve fit.

Experiment: qHTS for inhibitors of binding or entry into cells for Marburg Virus
Details: Marburg virus pseudotyped entry inhibition, cell reporter; activity change, negative = inhibition: at 37.8 µM (top of the series) unless noted
% is scaled to controls: 0 for no effect and ±100 for the full control effect; potency is read from the fitted curve at half-maximal effect.

| Compound | Potency | activity change, negative = inhibition |
| --- | --- | --- |
| C=CCSc1nc(-c2ccc(OC)cc2)c(C#N)c(=O)n1CC=C | inconclusive: 11.2 µM [inhibitor, partial curve, poor fit] | – |
| COC(=O)C1=NNC2C(=O)N(C3CCCCC3)C(=O)C12 (stereo not given) | inactive | – |
| Cc1ccc2c(c1)[nH]c1c(=O)n(Cc3ccccn3)cnc12 | inconclusive: 14.1 µM [activator, single point] | – |
| COC(=O)c1ccccc1NC(=O)CNC(=O)c1ccco1 | inactive | – |
| Cc1cc(C)c2c(CN3CCCCC3C)cc(=O)oc2c1 (stereo not given) | inactive | – |
| CCOc1ccc(NCc2cccn2-c2nnc(N3CCC(C(=O)NCCc4ccc(OC)c(OC)c4)CC3)s2)cc1 | inconclusive: 12.6 µM [inhibitor, partial curve, poor fit] | – |
| CC(=O)COc1nc2c(c(-c3ccco3)c1C#N)CCc1ccccc1-2 | inactive | – |
| COc1ccc(Cl)cc1-n1c(C)ccc1C | inconclusive: 11.2 µM [inhibitor, partial curve, poor fit] | – |
| Cc1nc(N2CCN(c3ccccn3)CC2)c2c(C)c(C(=O)N3CCN(c4cccc(Cl)c4)CC3)sc2n1 | inconclusive: 3.98 µM [inhibitor, single point] | – |
| O=C1C(Cc2ccc(F)cc2)SC(=Nc2ccccc2)N1c1ccccc1 (stereo not given) | inconclusive: 35.5 µM [inhibitor, single point] | – |
| COc1cc(O)oc1C=Nc1ccccc1 | inactive | – |
| COc1ccc(N2CCN(C(=O)CCc3c(C)nc4cc(-c5ccc(Cl)cc5)nn4c3C)CC2)cc1 | inactive | – |
| COc1ccc(S(=O)(=O)c2cnc3ccc(OC)cc3c2N2CCC3(CC2)OCCO3)cc1 | inconclusive: 1.64 µM [inhibitor, partial curve] | – |
| O=C(CSc1nc2ccccc2c(=O)n1-c1ccccc1)N1CCN(CCO)CC1 | inactive | – |
| CCn1c(O)c(/C(C)=N/N2CCCCC2c2cccnc2)c(=O)[nH]c1=S (stereo not given) | inconclusive: 17.8 µM [inhibitor, partial curve, poor fit] | – |
| Cc1nn(C)c(C(=O)N/N=C/c2ccc(-c3ccccc3)cc2)c1Cl | inconclusive: 8.91 µM [inhibitor, partial curve, poor fit] | – |
| O=C(NNC(=O)c1ccccc1[N+](=O)[O-])c1ccccn1 | inconclusive: 6.31 µM [inhibitor, single point] | – |
| O=C(COC(=O)Cc1ccccc1F)NNC(=O)c1ccc([N+](=O)[O-])cc1 | inactive | – |
| CN(C(=O)CSc1nnc(NCc2ccccc2)s1)C1CCS(=O)(=O)C1 (stereo not given) | inactive | – |
| COc1ccc(OCCN(C)C(=O)c2cccc(S(=O)(=O)N(C)c3ccccc3)c2)cc1 | inactive | – |
| CN1CCN(C(=O)OCCOCCOC(=O)N2CCN(C)CC2)CC1 | inactive | – |
| O=C(CSc1nnc(SCc2cccc3ccccc23)s1)N/N=C/c1c[nH]c2ccccc12 | inconclusive: 28.2 µM [inhibitor, single point] | – |
| CC/C(=N\NC(=O)CCC(=O)NCc1ccccc1)c1ccc(O)cc1 | inactive | – |
| CCC(C)C(=O)Nc1ccc(OC)cc1[N+](=O)[O-] (stereo not given) | inactive | – |

In another format: entries from further up.
Compound	Potency	activity change, negative = inhibition
COc1ccc(N2CCN(C(=O)CCc3c(C)nc4cc(-c5ccc(Cl)cc5)nn4c3C)CC2)cc1	inactive	–
COc1ccc(S(=O)(=O)c2cnc3ccc(OC)cc3c2N2CCC3(CC2)OCCO3)cc1	inconclusive: 1.64 µM [inhibitor, partial curve]	–
O=C(CSc1nc2ccccc2c(=O)n1-c1ccccc1)N1CCN(CCO)CC1	inactive	–
CCn1c(O)c(/C(C)=N/N2CCCCC2c2cccnc2)c(=O)[nH]c1=S (stereo not given)	inconclusive: 17.8 µM [inhibitor, partial curve, poor fit]	–
Cc1nn(C)c(C(=O)N/N=C/c2ccc(-c3ccccc3)cc2)c1Cl	inconclusive: 8.91 µM [inhibitor, partial curve, poor fit]	–

More entries

| Compound | Potency | activity change, negative = inhibition |
| --- | --- | --- |
| FC(F)(F)c1cnc(NNC(=S)Nc2ccc(Cl)cc2)c(Cl)c1 | inconclusive: 18.4 µM [inhibitor, single point] | – |
| COc1ccc(C(OCC(O)CNCCc2ccccc2)c2ccc(OC)cc2)cc1 (stereo not given) | inconclusive: 35.5 µM [inhibitor, single point] | – |
| CC(=O)c1c(C)[nH]c(C(=O)CN2C(=O)NC(C)(c3ccc4c(c3)OCCO4)C2=O)c1C (stereo not given) | inactive | – |
| CCCC(=O)Nc1ccc(NC(=O)c2cccs2)cn1 | inconclusive: 2.82 µM [activator, partial curve, poor fit] | – |
| O=C(Nc1nc(-c2ccc(Cl)cc2)cs1)NC1CCCCC1 | inconclusive: 7.08 µM [inhibitor, full curve, poor fit] | – |
| CNC(=O)c1cc2ncc(C(F)(F)F)cc2s1 | inconclusive: 12.6 µM [activator, single point] | – |
| COc1cc(/C=C2\SC(=O)N(CC(=O)Nc3cccc(C)c3)C2=O)ccc1OC(C)C(=O)O (stereo not given) | inconclusive: 14.1 µM [activator, single point] | – |
| OCc1nc2ccccc2n1Cc1c(F)cccc1Cl | inactive | – |
| CCc1c(C)nc(SCC(=O)c2cccs2)c(C#N)c1C | inactive | – |
| Cc1cc(C)c(C)c(S(=O)(=O)Nc2ccc(C(=O)N3CCCC3)cc2)c1C | inactive | – |
| Cc1ccccc1OCC(=O)N(Cc1ccc(N(C)C)cc1)CC1CCCO1 (stereo not given) | inactive | – |
| Cc1cccc(C(=O)NC2CCN(C(=O)Nc3ccc(F)cc3)CC2)c1 | inactive | – |
| c1ccc2c(Nc3nc(-c4ccncc4)nc4ccccc34)cccc2c1 | inconclusive: 1.12 µM [inhibitor, full curve, poor fit] | – |
| CC(=O)N1CCc2cc(Br)cc(S(=O)(=O)N3CCN(c4cc(C)ccc4C)CC3)c21 | inactive | – |
| CNC(=S)/N=C/NOCc1ccc(Cl)cc1Cl | inconclusive: 1 µM [inhibitor, full curve, poor fit] | – |
| O=C(CSc1nc2ccccc2c(=O)n1-c1ccc(F)cc1)NC1CCS(=O)(=O)C1 (stereo not given) | inconclusive: 0.562 µM [activator, partial curve, poor fit] | – |
| O=c1[nH]c2ccccc2n1CCCSc1cnc2ccccc2n1 | inactive | – |
| Cc1ccc(NC(=O)COC(=O)C(NS(=O)(=O)c2ccc(Cl)cc2)C(C)O)c(Br)c1 (stereo not given) | inactive | – |
| O=S1(=O)CCC(NC2CCCC2)C1 (stereo not given) | inconclusive: 12.6 µM [activator, partial curve, poor fit] | – |
| COc1ccc(OC(=O)c2cnn(-c3ccccc3)c2C)cc1 | inconclusive: 35.5 µM [inhibitor, single point] | – |
| CC1CCc2nc3ccccc3c(C(=O)OCC(=O)NC3CCS(=O)(=O)C3)c2C1 (stereo not given) | inactive | – |
| Cc1ccc(/C=C/C(=O)N2CCCC(C)C2)cc1 (stereo not given) | inconclusive: 9.2 µM [inhibitor, partial curve, poor fit] | – |
| COc1cc(OC)cc(C(=O)NCCNC(=O)c2ccco2)c1 | inactive | – |
| O=C(c1ccc(=O)oc1)N1CCN(C(c2ccccc2)c2ccccc2)CC1 | inconclusive: 16.4 µM [inhibitor, single point] | – |

| Compound | Potency | activity change, negative = inhibition |
| --- | --- | --- |
| Cc1onc(-c2ccccc2)c1-c1nnc(-c2ccccc2C(F)(F)F)o1 | inconclusive: 35.5 µM [inhibitor, single point] | – |
| CC(C)Oc1ccc(/C(O)=C2/C(=O)C(=O)N(CCN(C)C)C2c2ccco2)cc1 (stereo not given) | inactive | – |
| CCC1CCCCN1S(=O)(=O)c1ccc(NC(=O)c2ccncc2)cc1 (stereo not given) | inconclusive: 7.94 µM [inhibitor, partial curve, poor fit] | – |
| O=C(CNC(=O)c1ccccc1)Nc1ccc(Br)cc1C(=O)c1ccccc1 | inconclusive: 15.8 µM [inhibitor, single point] | – |
| CCOC(=O)c1cc2ccccc2nc1C | inconclusive: 29.1 µM [activator, single point] | – |
| COC(=O)Oc1ccc(/C=N/NC(=O)CSCc2ccccc2Br)cc1OC | inconclusive: 25.1 µM [inhibitor, single point] | – |
| COc1ccc(CC(=O)OCC(=O)c2ccc[nH]2)cc1 | inconclusive: 39.8 µM [activator, partial curve, poor fit] | – |
| O=C(COC(=O)c1cccc(S(=O)(=O)N2CCCCC2)c1)NC1CCCCC1 | inconclusive: 5.62 µM [inhibitor, single point] | – |
| COc1ccc(CC2(C)OC(c3ccc(Cl)cc3)=NN2C(C)=O)cc1 (stereo not given) | inconclusive: 3.55 µM [inhibitor, full curve, poor fit] | – |
| NCCc1ccc(O)c(O)c1 | inconclusive: 28.1 µM [inhibitor, partial curve, poor fit] and inconclusive: 18.4 µM [inhibitor, single point] | – |
| CCCOc1ccc2oc(=O)c3c(c2c1)CCCN3C(=O)CN1CCCC(C(=O)OCC)C1 (stereo not given) | inconclusive: 3.55 µM [inhibitor, single point] | – |
| CCC(C)NC(=O)Cn1c(=O)n(Cc2ccc(C(=O)NCc3ccccc3OC)cc2)c(=O)c2ccccc21 (stereo not given) | – | inconclusive: 5.25% [activator] [at 46.1 µM] |
| CCOC(=O)C1C(=O)NC(C(=O)OCC)(C(=O)OCC)C1CC (stereo not given) | inactive | – |
| CNC(=O)c1cccc(NC(=O)C(C)c2ccc3cc(OC)ccc3c2)c1 (stereo not given) | inconclusive: 35.5 µM [inhibitor, single point] | – |
| COc1cc2nc(SCC(=O)c3ccc(Br)cc3)n3nc(C)nc3c2cc1OC | inconclusive: 6.31 µM [inhibitor, single point] | – |
| Cc1cccc(C(=O)Nc2cccnc2Cl)c1 | inconclusive: 35.5 µM [activator, single point] | – |
| COc1cccc(NC(=O)C(=O)N/N=C/c2ccc3c(c2)OCO3)c1 | inactive | – |
| COC(=O)C1=C(C(=O)OC)[C@@H]2N(Cc3ccccc3)c3ccccc3[C@@]23C[C@@H](C(=O)OC)N(C(=O)Nc2ccc(C(F)(F)F)cc2)C3=N1 | inconclusive: 2.37 µM [activator, partial curve, poor fit] | – |
| O=C(Nc1ccccc1)c1ccc(NCC2CCCO2)c([N+](=O)[O-])c1 (stereo not given) | inactive | – |
| Cc1cc(N/N=C/c2ccc(Cl)cc2)nc(NCc2ccccc2)n1 | inconclusive: 7.08 µM [inhibitor, partial curve, poor fit] | – |
| O=C(O)c1cnnc2ccccc12 | inactive | – |
| O=C(COc1ccc(/C=N/NC(=O)c2ccccc2Br)cc1)Nc1ccccc1 | inconclusive: 20 µM [inhibitor, partial curve, poor fit] | – |
